For 39 compounds, AC50 results are on record in PubChem BioAssay AID445 (National Center for Advancing Translational Sciences (NCATS), 2006).

SMILES strings stand for the structures. This is one part of the list. Shown are side measurements of this screen, not its main read-out; they come without a call. The list favours compounds with an active or inconclusive main result. Words in brackets tell the shape of the fitted curve; partial curves, single points and poor fits give uncertain potencies.

This experiment can be described thus: IkB Signaling. As to conditions: ABC-DLBCL IkBa-CBG/CBR dual luciferase ratio (green luciferase fused to IkBa over red control in OCI-Ly3 lymphoma cells), 4 h; measured here: control luc red channel unless noted. The method in brief:
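Luminescence ratio of IκBα-fused green versus native red beetle luciferase in OCI-Ly3 cells, 4 h post-doxycycline with compound; red signal alone, scaled from basal (0%) to zero light (-100%), flagged nonspecific or cytotoxic effects.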
For `CC(=O)Nc1cccc(NC(=O)CSc2nccn2Cc2ccc3c(c2)OCO3)c1`, the AC50 is 39.8 µM [falling, single point]. The figure for `COc1cc(NC(=O)CN(c2ccc(C)cc2)S(=O)(=O)c2c(C)n[nH]c2C)cc(OC)c1` is 1.58 µM [falling, partial curve]; for `CCOc1ccc(-c2nc(CSCC(=O)N3CCN(C(=O)c4ccco4)CC3)c(C)o2)cc1` it is 15.8 µM [falling, partial curve]; for `CC(C)CCN(C(=O)Nc1ccc(Cl)c(Cl)c1)C1CCN(C(C)C)CC1` it is 25.1 µM [falling, partial curve, poor fit]. The figure for `O=C(c1noc2c1CCCCC2)N1CCN(c2cccc(Cl)c2)CC1` is 25.1 µM [falling, partial curve]; for `Cc1ccc(NC(=O)N2CC3CCCN3c3ccccc32)cc1Cl` (centres undefined) it is 25.1 µM [falling, single point]. In the case of `O=C(Cn1ncc2c3ccccc3n(Cc3ccccc3F)c2c1=O)N1CCCCCC1`, the AC50 was 15.8 µM [falling, partial curve]. The figure for `O=C(COc1ccc(Cl)cc1)Nc1nc(-c2cccs2)cs1` is 39.8 µM [rising, single point] [measured here: IkB-luc green channel]; for `CCCCC(=O)Nc1cc2nn(-c3ccc(OC)cc3)nc2cc1C` it is 0.316 µM [rising, full curve, poor fit]. The figure for `COC(=O)c1c(C)n(-c2ccccc2)c2ccc(O)cc12` is 15.8 µM [falling, partial curve]; for `CCc1ccccc1NC(=O)Cn1nnc2sc3c(c2c1=O)CCC(C(C)(C)C)C3` (centres undefined) it is 20 µM [falling, single point]; for `O=C(c1cc2ccc3cccnc3c2[nH]1)N1CCCCC1` it is 0.794 µM [falling, full curve]. The figure for `CCN1CCSc2ccc(C(=O)NCc3ccc(F)cc3)cc21` is 39.8 µM [falling, single point]; for `Cc1ccc(CNC(=O)CCSCc2cnn(-c3ccccc3)c2-n2cccc2)cc1` it is 39.8 µM [falling, single point]; for `CC(C)c1ccc(OCC(=O)Nc2cc(-c3ccccc3)no2)cc1` it is 15.8 µM [falling, partial curve]. As to `COc1cc(CN(C(=O)c2ccccc2Br)c2ccccn2)cc(OC)c1OC`, the AC50 is 25.1 µM [falling, single point].

Turning to `CC(=O)Nc1ccc(S(=O)(=O)N2CCN(c3nc(NC4CCCC4)c4ccccc4n3)CC2)cc1`, the concentration at half-maximal activity (AC50) is 10 µM [falling, partial curve]. The result for `Cc1ccc(C)c(N2CCN(C(=O)CCS(=O)(=O)c3ccc4c(c3)oc(=O)n4C)CC2)c1` reads 39.8 µM [falling, single point]; that for `Cc1ccc(NC(=O)CN2C(=O)C(c3ccc(C)cc3)=NC23CCCCCC3)cc1`, 10 µM [falling, partial curve].

Consider `CCc1ccc(NC(=O)c2cccc(N3CCCS3(=O)=O)c2)cc1`, for which the concentration at half-maximal activity (AC50) is 39.8 µM [falling, single point]. The figure for `COc1ccc2c(c1)c(=O)c(S(=O)(=O)c1ccc(Cl)cc1)cn2Cc1cc(C)ccc1C` is 5.01 µM [falling, partial curve]; for `CCn1ccc2c(OCC(=O)Nc3ccc(C)c(Cl)c3)cccc2c1=O` it is 39.8 µM [falling, single point]; for `COc1cccc(N2CCN(C(=O)CCSCc3ccccc3F)CC2)c1` it is 39.8 µM [falling, single point]. The figure for `CCOC(=O)C1CCN(S(=O)(=O)c2cc3c4c(c2)C(C)C(=O)N4CCC3)CC1` (centres undefined) is 7.94 µM [rising, single point]; for `Cc1cccc(C(=O)Nc2c(C(=O)N3CCN(c4ccc(F)cc4)CC3)oc3ccccc23)c1` it is 10 µM [falling, partial curve]; for `CCc1ccc2[nH]c(=O)c(CN(Cc3ccccc3OC)Cc3nnnn3Cc3ccco3)cc2c1` it is 15.8 µM [falling, partial curve]. Consider `O=C(Cc1ccc(Cl)cc1)NCC(c1cccs1)S(=O)(=O)c1ccccc1` (centres undefined), for which the concentration at half-maximal activity (AC50) is 39.8 µM [falling, single point]. On to `COc1ccc(CC(=O)Nc2ccc(-c3nnc(-c4ccccc4)o3)cc2)cc1OC`, for which the AC50 is 0.01 µM [falling, full curve]. The result for `Cc1ccc(C)c(NC(=O)CSc2nnc3[nH]c(=O)cc(-c4ccccc4)n23)c1` reads 25.1 µM [falling, partial curve]; that for `CCOc1ccc(NC(=O)Cn2c(=O)n(CC3CCC(C(=O)NCCc4ccccc4)CC3)c(=O)c3ccccc32)cc1` (centres undefined), 39.8 µM [falling, single point]; that for `COc1ccc(NC(=O)CSc2oc(-c3ccco3)nc2S(=O)(=O)c2ccc(C)cc2)c(OC)c1`, 0.0251 µM [falling, full curve, poor fit]. In the case of `COc1ccccc1C(=O)Nc1cccc(C(=O)OCc2cc(=O)n3c4c(sc3n2)CCCC4)c1`, the AC50 is 3.16 µM [falling, full curve]. The result for `Cc1c(CNC(C)CCc2ccccc2)c(C(=O)O)c(C)n1Cc1ccc(F)cc1` (centres undefined) reads 20 µM [falling, single point]. The figure for `Cc1csc2nc(COC(=O)c3cccc(NC(=O)COc4ccccc4Cl)c3)cc(=O)n12` is 5.01 µM [falling, full curve]; for `CCCC(=O)c1ccc(N2CCN(C(=O)c3ccccc3Br)CC2)c(F)c1` it is 10 µM [falling, partial curve]; for `COc1ccc(CNC(=O)CC2N=C3c4ccccc4N=C(SCC(=O)Nc4ccc(C(C)C)cc4)N3C2=O)cc1` (centres undefined) it is 39.8 µM [falling, single point]. The figure for `COC(=O)CCCn1c(-c2ccc(C)cc2)c(C)n2c3c(=O)n(C)c(=O)n(C)c3nc12` is 25.1 µM [falling, single point]; for `COc1ccc(-c2cn3c(n2)sc2cc(C(=O)NC(C)C45CC6CC(CC(C6)C4)C5)ccc23)cc1` (centres undefined) it is 39.8 µM [falling, single point].

Regarding `Cc1ccn2c(Nc3ccccc3C)c(-c3ccncc3)nc2c1`, the AC50 was 39.8 µM [falling, single point].

The term AC50 denotes the midpoint of the concentration-response curve, whichever way the signal moves.
